Assay results taken from PubChem BioAssay AID1688 (National Center for Advancing Translational Sciences (NCATS), 2009).
The campaign covered roughly 220,000 compounds. About 2,400 (1.1%) were called active. Inconclusive results, whose numbers are uncertain, are shown with a selection of clear calls. Calls come from the whole dose curve; as a rule, active = well fitted inhibition curve with a large enough effect; inconclusive = small, poorly fitted or top-dose-only effect, or effect the other way; inactive = no such curve, though single readings can be large or run the other way. Potencies beside an inconclusive call are fits to weak or partial responses and may not hold up.

assay: qHTS Multiplex Assay to Identify Dual Action Probes in a Cell Model of Huntington: Aggregate Formation (GFP); conditions: PC12 HttQ103-GFP aggregates, Acumen cytometry, 40 h; activity change, negative = inhibition: at 46.1 µM (top of the series) unless noted; note: nearly all actives have a fitted effect of over 60% in size
In short: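 Aggregate formation scored by laser-scanning cytometer (488 excitation, 500–530 emission) in lysed PC12 cells expressing Q103-GFP after 100 nM tebufenozide induction; library tested in dose series, with ATPLite reagent added in the multiplex.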
% is set by controls: 0 for no effect and ±100 for the full control effect; potency is the fitted concentration of half-maximal effect.

SMILES | Potency | activity change, negative = inhibition
Cc1cc(C)nc(SCC(=O)Nc2ccc(S(=O)(=O)NC(C)(C)C)cc2)n1 | inconclusive: 10 µM [inhibitor, partial curve] | –
Cc1ccc(N2CCN(/N=C/c3ccncc3)CC2)cc1 | inconclusive: 5.01 µM [inhibitor, partial curve] | –
CC1CCC(C(C)C)C(OC(=O)Cn2c(-c3ccccc3)[n+](C)c3ccccc32)C1 (centres undefined) | active: 11.2 µM | –
CCOC(=O)CC1C(=O)NCCN1S(=O)(=O)c1ccc(Cl)cc1Cl (centres undefined) | inconclusive: 1.26 µM [inhibitor, single point] | –
O=C(NC(Cc1c[nH]c2ccccc12)C(=O)O)c1cccs1 (centres undefined) | – | inactive: -11.6%
c1ccc2c(NC3C4CC5CC(C4)CC3C5)nc(N3CCOCC3)nc2c1 (centres undefined) | inconclusive: 25.1 µM [inhibitor, single point] | –
Cc1cc(/C=N/O)c(C)n1-c1ccc(Br)cc1 | inconclusive: 35.5 µM [inhibitor, single point] | –
COc1cc(/C=C2\SC(=Nc3ccccc3)N(CCc3c[nH]c4ccccc34)C2=O)ccc1OC(C)C(=O)O (centres undefined) | inconclusive: 35.5 µM [inhibitor, single point] | –
Cc1[nH]c2ccccc2c1CCO | inconclusive: 3.16 µM [inhibitor, single point] | –
CCOC(=O)C1=C(C)N=C(/N=C/N(C)C)SC1c1ccccc1 (centres undefined) | inconclusive: 20 µM [inhibitor, partial curve] | –
COc1ccc(CCNc2oc(COc3ccccc3Cl)nc2C#N)cc1OC | inconclusive: 35.5 µM [inhibitor, single point] | –
Cc1ccc(OC(=O)c2oc3ccc(F)cc3c2C)c(C)c1 | – | inactive: -8.15%
O=C(COC(=O)CCSc1ccc(Cl)cc1)NCc1ccccc1Cl | active: 15.8 µM | –
O=S(=O)(c1ccccc1)N1CCC(O)(CSc2ccc(F)cc2)CC1 | inconclusive: 35.5 µM [inhibitor, single point] | –
Cc1ccc(-c2csc(NC(=O)N3CCOCC3)n2)cc1 | – | inactive: 2.41% [at 9.22 µM]
O=C(O)c1ccc(NC(=O)C2CC=CCC2C(=O)O)cc1 (centres undefined) | – | inactive: 1.71%
CC(=O)Nc1cccc(NC(=O)c2cc3ccccc3o2)c1 | – | inactive: -9.34%
Cc1[nH]nc2c1C1(CCN(Cc3ccccc3)CC1)C(C#N)=C(N)O2 | inconclusive: 0.631 µM [activator, single point] | –
O=C(Nc1ccccc1[N+](=O)[O-])c1cc2ccccc2nc1Cl | inconclusive: 0.631 µM [activator, single point] | –
O=C(COc1ccc(Cl)cc1Cl)NC(=S)N1CCCc2ccccc21 | inconclusive: 15.8 µM [inhibitor, single point] | –
CCOC(=O)c1ccc(NC(=O)c2c(NC(=O)CCC(=O)O)sc3c2CCCCC3)cc1 | – | inactive: -6.65% [at 9.22 µM]
CS(=O)(=O)N(CC(=O)NCCSCc1ccccc1)c1ccccc1 | – | inactive: 0.277% [at 9.22 µM]
CCOC(=O)c1cc(-c2ccccc2)sc1NC(=O)c1ccc(OC)cc1 | – | inactive: -0.795%

Single records, as listed above:
COc1ccc(CCNc2oc(COc3ccccc3Cl)nc2C#N)cc1OC is entered as Potency: inconclusive: 35.5 µM [inhibitor, single point]
Cc1ccc(N2CCN(/N=C/c3ccncc3)CC2)cc1 is entered as Potency: inconclusive: 5.01 µM [inhibitor, partial curve]
Cc1cc(C)nc(SCC(=O)Nc2ccc(S(=O)(=O)NC(C)(C)C)cc2)n1 is entered as Potency: inconclusive: 10 µM [inhibitor, partial curve]

Next results follow:

SMILES | Potency | activity change, negative = inhibition
O/N=C1/CC/C(=N\O)c2nn(-c3ccccc3)nc21 | inconclusive: 25.1 µM [inhibitor, single point] | –
COc1ccc(C)cc1N(CC(=O)Nc1ccc2c(c1)OCCO2)S(C)(=O)=O | inconclusive: 6.31 µM [activator, partial curve] | –
Cc1nn(CCC#N)c2nc(-c3ccccc3)cc(C(F)(F)F)c12 | inconclusive: 6.31 µM [inhibitor, partial curve] | –
O=C(c1ccc([N+](=O)[O-])cc1)N1CCSC1c1ccc(Cl)cc1 (centres undefined) | – | inactive: 15.9%
COc1ccccc1C1(CC(=O)O)CCOC(C)(C)C1 (centres undefined) | inconclusive: 25.1 µM [activator, single point] | –
COCCCNC(=O)c1ccc(N2CCOCC2)c(NS(=O)(=O)c2ccc(OC)cc2)c1 | – | inactive: -9.33%
CC1(C)Cc2nc3oc4c(N5CCOCC5)ncnc4c3cc2CO1 | – | inactive: -6.46%
Cc1c(NS(=O)(=O)c2ccc(N(C)C3CCCCC3)c([N+](=O)[O-])c2)c(=O)n(-c2ccccc2)n1C | inconclusive: 35.5 µM [inhibitor, single point] | –
CCN1CCN(C(=O)C2CCN(S(=O)(=O)c3cccc4cccnc34)CC2)CC1 | – | inactive: 10.4%
O=C(O)CC(CC(=O)O)(C(=O)O)c1ccccc1 | – | inactive: -4.06% [at 9.22 µM]
CSc1nc(N2CCOCC2)c2c(c1C#N)CCCCC2 | inconclusive: 12.6 µM [inhibitor, partial curve] | –
c1ccc2c(c1)ncn2CCC1CCCCC1 | inconclusive: 35.5 µM [inhibitor, single point] | –
Cc1noc(C)c1CSc1nc2[nH]ncc2c(=O)n1-c1ccccc1 | inconclusive: 11.2 µM [activator, partial curve] | –
Cc1oc(C(=O)O)cc1COc1cccc2cccnc12 | – | inactive: 4.28%
COc1ccc(NC(=S)Nc2ccc(C)c(S(=O)(=O)N3CCCCC3)c2)cc1 | inconclusive: 11.2 µM [inhibitor, single point] | –
Cc1ccc(C(=O)Nc2ncc3c(Cl)cccc3n2)cc1 | – | inactive: 5.52%
O=C(c1ccc(Cn2c(=O)[nH]c3ccccc3c2=O)cc1)N1CCN(c2ccc(F)cc2)CC1 | inconclusive: 0.0891 µM [inhibitor, full curve, poor fit] | –
O=C(Nc1ccccc1)c1cc(-n2cnnc2)ccc1Cl | inconclusive: 0.891 µM [inhibitor, single point] | –
Cc1cc2c(=O)n(Cc3ccco3)c(SCC(=O)N3CCCc4ccccc43)nc2s1 | inconclusive: 15.8 µM [inhibitor, single point] | –
O=C1C(Cl)=C(NS(=O)(=O)c2ccc([N+](=O)[O-])cc2)C(=O)c2ccccc21 | inconclusive: 1.26 µM [inhibitor, full curve, poor fit] | –
Cc1cccc(-n2nnc(C(=O)N3CCc4ccccc4C3)c2N)c1 | inconclusive: 35.5 µM [inhibitor, single point] | –
CCOc1ccc(NC(=S)/C(=C(\[O-])c2ccc(C)c([N+](=O)[O-])c2)[n+]2ccccc2)cc1 | inconclusive: 14.1 µM [inhibitor, single point] | –
O=C(c1c(Cl)cccc1Cl)N1CCN(c2cccc3[nH]ccc23)CC1 | – | inactive: -14% [at 9.22 µM]

SMILES | Potency | activity change, negative = inhibition
CCC(C(=O)OC)n1cnc2c(nnn2-c2cccc(Cl)c2)c1=O (centres undefined) | inconclusive: 5.01 µM [activator, partial curve] | –
COc1ccc2[nH]c(C)c(CCN(Cc3cccs3)C(=S)Nc3ccc(F)cc3)c2c1 | inconclusive: 35.5 µM [inhibitor, single point] | –
CCCCCCOC1(c2ccccc2)OC(=O)c2ccccc21 (centres undefined) | – | inactive: -2.91%
O=C(O)/C=C/c1cn(-c2ccccc2)nc1-c1cccc([N+](=O)[O-])c1 | – | inactive: 10.7% [at 9.22 µM]
CCCCCn1c(NC(=O)c2ccco2)c(S(=O)(=O)c2ccc(C)cc2)c2nc3ccccc3nc21 | inconclusive: 17.8 µM [inhibitor, single point] | –
CC(C)(C)n1nc2c(c1NC(=O)COc1ccc3ccccc3c1)CS(=O)(=O)C2 | inconclusive: 25.1 µM [inhibitor, single point] | –
Cc1ccc(C(=O)C(C(=O)/C=C/c2ccccc2)=C2SCCCS2)cc1 | inconclusive: 3.16 µM [activator, partial curve] | –
CC1=Nc2ccccc2/C1=C/c1sc(=N)n(-c2nccs2)c1O | inconclusive: 7.08 µM [inhibitor, partial curve] | –
CCC(C)NC(=O)C1CCN(c2nc(C)cc(C)n2)CC1 (centres undefined) | – | inactive: 8.45%
C=CCn1c(SCc2c(C)noc2C)nc2sc3c(c2c1=O)CCC(C)C3 (centres undefined) | inconclusive: 35.5 µM [inhibitor, partial curve] | –
COc1ccc([N+](=O)[O-])cc1NC(=O)C(C)OC(=O)/C=C/c1ccco1 (centres undefined) | inconclusive: 5.62 µM [inhibitor, single point] | –
Clc1ccc(OCCOCCOc2cccc3cccnc23)c(Br)c1 | inconclusive: 35.5 µM [inhibitor, single point] | –
Cc1ccc(S(=O)(=O)N(Cc2ccccc2)Cc2ccco2)cc1 | inconclusive: 35.5 µM [inhibitor, single point] | –
CC(C)c1nc(N(C)S(C)(=O)=O)nc(-c2ccc(F)cc2)c1/C=C/C(O)CC(O)CC(=O)O (centres undefined) | – | inactive: 0.536%
CC1Cc2ccccc2N1C(=O)COC(=O)c1c2c(nc3ccccc13)CCCCC2 (centres undefined) | inconclusive: 35.5 µM [inhibitor, single point] | –
COc1cc(-c2c(C#N)c(N)nc3c2c(C)nn3-c2ccc(C)c(C)c2)cc(OC)c1OC | inconclusive: 35.5 µM [inhibitor, single point] | –
CCOC(=O)CSc1nncc2ccc(OC)c(OC)c12 | inconclusive: 1.26 µM [inhibitor, single point] | –
O=C(Nc1cccnc1)c1cnn2c(C(F)F)cc(C3CC3)nc12 | inconclusive: 3.98 µM [activator, single point] | –
CC(=O)NC(c1ccccc1)c1cc([N+](=O)[O-])c2cccnc2c1O (centres undefined) | active: 2.82 µM | –
Cn1nnnc1SCCNCc1cc(Cl)ccc1OCc1ccccc1 | active: 25.1 µM | –
COc1ccc(Nc2c3c(nc4ccccc24)CCCC3)cc1OC | – | inactive: 6.19%
O=C(CSCc1ccc(Br)cc1)N=Nc1c(O)[nH]c2ccccc12 | inconclusive: 10 µM [activator, partial curve] | –
COC(=O)[C@@]1(Cc2ccc(OC)cc2)[C@H]2c3cc(C(=O)N4CCCC4)n(Cc4ccc(C)o4)c3C[C@H]2CN1C(=O)c1ccccc1 | inconclusive: 35.5 µM [inhibitor, single point] | –
